Data as given in article PMC8371122.

By UniProt entry, the sequences of proteins in these tests, tags left out. Residues count along the entry.
UniProt Q8BPU7: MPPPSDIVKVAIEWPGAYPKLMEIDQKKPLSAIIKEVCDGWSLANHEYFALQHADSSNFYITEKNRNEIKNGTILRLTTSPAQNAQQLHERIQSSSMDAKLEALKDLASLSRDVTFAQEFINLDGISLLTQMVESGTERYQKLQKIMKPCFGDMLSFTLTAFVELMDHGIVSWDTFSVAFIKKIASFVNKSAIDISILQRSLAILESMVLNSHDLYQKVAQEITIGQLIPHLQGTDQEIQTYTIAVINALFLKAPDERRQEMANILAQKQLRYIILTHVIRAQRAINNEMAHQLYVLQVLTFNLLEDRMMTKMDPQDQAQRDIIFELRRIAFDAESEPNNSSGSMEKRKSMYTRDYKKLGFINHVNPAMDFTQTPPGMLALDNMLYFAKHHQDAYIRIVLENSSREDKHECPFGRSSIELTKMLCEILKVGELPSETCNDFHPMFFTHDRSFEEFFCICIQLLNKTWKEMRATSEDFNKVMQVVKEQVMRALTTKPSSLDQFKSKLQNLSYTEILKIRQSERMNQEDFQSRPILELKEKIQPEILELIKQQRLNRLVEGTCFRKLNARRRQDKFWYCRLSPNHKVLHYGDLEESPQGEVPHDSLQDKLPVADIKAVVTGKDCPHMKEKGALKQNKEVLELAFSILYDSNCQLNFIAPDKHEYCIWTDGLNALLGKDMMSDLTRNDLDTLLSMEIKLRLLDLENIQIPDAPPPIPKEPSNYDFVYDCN
UniProt Q80SY3: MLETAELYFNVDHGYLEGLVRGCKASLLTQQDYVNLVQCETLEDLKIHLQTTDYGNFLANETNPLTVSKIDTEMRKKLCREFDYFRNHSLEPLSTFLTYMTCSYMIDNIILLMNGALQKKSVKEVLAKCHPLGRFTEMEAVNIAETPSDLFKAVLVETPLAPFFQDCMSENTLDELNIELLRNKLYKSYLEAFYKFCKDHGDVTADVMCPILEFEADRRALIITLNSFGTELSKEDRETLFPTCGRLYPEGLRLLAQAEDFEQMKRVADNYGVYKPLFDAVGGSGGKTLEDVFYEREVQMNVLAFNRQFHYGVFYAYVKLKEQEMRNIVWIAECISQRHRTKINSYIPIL
UniProt Q91ZX7, residues 20-4545: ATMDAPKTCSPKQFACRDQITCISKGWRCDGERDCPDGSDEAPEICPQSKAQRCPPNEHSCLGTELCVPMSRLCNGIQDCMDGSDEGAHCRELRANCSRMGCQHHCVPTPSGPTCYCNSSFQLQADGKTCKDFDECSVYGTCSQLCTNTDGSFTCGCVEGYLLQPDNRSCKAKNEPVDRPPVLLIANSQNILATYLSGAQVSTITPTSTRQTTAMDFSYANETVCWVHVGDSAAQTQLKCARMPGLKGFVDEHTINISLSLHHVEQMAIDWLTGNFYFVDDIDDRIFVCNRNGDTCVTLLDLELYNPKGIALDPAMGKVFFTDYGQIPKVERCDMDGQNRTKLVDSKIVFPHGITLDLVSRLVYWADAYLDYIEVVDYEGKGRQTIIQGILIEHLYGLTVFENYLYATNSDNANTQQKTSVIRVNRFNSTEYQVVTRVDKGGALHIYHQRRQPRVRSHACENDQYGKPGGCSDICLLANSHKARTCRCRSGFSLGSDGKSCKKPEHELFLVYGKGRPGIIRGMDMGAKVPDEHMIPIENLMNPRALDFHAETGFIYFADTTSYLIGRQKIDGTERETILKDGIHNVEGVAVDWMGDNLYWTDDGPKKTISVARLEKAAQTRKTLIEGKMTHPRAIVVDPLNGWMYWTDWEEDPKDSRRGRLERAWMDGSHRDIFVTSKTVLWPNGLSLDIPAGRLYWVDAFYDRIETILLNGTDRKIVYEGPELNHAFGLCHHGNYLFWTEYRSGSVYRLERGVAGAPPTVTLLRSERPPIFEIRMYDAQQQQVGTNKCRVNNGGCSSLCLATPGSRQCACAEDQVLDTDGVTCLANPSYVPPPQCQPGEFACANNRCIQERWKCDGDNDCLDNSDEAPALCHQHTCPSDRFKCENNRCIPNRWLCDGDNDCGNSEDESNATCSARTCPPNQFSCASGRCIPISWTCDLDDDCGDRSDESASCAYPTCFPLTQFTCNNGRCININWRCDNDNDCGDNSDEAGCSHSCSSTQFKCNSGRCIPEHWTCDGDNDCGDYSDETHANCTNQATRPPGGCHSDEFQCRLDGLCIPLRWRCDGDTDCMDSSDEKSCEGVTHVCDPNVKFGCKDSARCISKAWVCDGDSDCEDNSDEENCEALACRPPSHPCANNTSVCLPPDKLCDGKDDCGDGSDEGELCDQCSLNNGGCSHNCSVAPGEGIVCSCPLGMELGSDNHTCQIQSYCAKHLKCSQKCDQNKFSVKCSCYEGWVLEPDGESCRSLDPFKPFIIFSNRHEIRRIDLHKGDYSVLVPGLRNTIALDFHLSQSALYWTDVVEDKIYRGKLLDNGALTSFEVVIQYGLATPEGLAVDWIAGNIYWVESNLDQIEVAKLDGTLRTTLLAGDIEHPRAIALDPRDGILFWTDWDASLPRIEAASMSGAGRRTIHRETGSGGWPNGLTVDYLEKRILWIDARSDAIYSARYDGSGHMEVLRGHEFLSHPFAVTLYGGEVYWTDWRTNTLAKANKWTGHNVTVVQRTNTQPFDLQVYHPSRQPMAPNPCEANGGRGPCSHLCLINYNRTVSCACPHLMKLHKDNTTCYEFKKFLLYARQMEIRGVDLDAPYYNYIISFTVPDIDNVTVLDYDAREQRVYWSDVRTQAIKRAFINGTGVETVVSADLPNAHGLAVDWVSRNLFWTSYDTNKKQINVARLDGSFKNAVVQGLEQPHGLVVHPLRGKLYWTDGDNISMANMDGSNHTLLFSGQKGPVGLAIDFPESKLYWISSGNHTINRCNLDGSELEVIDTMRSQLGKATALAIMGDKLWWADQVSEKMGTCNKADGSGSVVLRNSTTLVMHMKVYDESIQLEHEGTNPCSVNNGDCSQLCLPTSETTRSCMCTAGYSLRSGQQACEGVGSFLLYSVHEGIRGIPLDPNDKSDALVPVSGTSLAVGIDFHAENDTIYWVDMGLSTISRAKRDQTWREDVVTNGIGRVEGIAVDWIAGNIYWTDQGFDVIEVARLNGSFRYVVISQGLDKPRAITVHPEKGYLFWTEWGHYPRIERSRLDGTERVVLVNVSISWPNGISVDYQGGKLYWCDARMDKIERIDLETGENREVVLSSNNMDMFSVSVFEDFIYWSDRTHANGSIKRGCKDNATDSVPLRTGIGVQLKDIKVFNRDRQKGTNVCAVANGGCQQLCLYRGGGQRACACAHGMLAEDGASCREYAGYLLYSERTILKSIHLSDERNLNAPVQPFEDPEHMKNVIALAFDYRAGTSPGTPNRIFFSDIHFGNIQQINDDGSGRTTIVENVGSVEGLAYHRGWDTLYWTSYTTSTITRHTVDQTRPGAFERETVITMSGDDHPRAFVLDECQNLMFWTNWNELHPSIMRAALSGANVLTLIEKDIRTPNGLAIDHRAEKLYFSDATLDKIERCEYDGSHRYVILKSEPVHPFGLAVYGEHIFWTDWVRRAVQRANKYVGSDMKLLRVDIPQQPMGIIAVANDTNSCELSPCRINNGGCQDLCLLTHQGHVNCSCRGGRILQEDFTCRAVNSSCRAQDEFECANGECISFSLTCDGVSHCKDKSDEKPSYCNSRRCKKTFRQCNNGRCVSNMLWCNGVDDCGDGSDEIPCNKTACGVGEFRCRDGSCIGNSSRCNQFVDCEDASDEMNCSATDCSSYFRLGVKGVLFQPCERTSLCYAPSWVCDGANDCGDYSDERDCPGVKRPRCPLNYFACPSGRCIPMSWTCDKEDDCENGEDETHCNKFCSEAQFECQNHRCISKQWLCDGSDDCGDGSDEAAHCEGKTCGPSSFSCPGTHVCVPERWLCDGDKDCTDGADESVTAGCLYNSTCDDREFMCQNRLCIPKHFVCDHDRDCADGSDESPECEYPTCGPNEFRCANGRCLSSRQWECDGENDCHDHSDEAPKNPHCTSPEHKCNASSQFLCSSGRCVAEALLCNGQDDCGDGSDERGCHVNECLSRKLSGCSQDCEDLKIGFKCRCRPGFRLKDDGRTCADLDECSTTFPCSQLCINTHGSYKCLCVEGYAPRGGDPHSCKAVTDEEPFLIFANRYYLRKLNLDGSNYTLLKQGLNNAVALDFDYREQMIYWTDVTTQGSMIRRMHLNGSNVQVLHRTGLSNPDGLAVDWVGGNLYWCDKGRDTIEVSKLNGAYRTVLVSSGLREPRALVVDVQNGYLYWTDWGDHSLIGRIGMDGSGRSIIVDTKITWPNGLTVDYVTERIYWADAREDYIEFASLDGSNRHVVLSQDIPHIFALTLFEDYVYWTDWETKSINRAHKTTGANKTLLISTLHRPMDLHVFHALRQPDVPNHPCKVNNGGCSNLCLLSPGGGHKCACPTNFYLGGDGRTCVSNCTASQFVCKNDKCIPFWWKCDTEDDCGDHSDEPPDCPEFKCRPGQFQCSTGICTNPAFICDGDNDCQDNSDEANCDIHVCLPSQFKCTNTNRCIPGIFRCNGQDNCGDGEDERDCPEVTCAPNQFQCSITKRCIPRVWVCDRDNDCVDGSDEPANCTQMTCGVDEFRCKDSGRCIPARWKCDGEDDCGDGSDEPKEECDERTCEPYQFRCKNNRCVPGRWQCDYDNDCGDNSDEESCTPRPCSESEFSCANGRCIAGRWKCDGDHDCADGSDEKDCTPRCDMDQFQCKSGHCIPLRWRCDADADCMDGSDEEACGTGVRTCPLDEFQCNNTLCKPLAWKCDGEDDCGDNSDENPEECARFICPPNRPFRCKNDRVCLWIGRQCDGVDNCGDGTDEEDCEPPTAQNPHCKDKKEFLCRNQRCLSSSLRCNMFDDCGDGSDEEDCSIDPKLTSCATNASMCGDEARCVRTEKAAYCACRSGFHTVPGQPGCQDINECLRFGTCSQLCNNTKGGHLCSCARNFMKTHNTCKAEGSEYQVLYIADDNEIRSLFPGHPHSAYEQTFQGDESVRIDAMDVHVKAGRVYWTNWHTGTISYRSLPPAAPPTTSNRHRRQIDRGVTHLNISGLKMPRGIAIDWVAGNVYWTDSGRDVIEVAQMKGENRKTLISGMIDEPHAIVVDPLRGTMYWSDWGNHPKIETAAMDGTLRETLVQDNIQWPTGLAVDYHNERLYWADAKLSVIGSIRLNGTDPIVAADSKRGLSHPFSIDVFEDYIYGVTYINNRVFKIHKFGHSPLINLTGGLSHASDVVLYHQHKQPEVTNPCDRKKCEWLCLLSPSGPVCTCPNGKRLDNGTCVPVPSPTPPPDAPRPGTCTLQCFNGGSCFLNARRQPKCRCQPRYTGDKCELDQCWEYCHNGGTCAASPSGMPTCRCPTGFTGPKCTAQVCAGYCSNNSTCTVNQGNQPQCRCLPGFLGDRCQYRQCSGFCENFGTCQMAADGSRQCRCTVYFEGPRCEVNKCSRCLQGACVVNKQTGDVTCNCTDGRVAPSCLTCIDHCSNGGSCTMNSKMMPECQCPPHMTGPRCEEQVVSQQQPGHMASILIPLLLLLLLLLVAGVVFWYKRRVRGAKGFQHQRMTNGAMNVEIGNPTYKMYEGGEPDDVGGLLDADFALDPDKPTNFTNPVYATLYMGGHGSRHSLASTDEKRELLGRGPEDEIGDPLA

Columns and labels:
[1] = molecular target: ELMO1 (mouse (endogenous in osteoclasts)) (UniProt Q8BPU7); test: affinity purification with mass spectrometry; total ELMO1 interactome: ELMO1 immunoprecipitated (mouse anti-ELMO1, Protein A agarose) from Triton X-100 lysate of mature mouse osteoclasts; SDS-PAGE, LC-MS/MS; Elmo1+/+ and Elmo1-/- osteoclasts
[2] = molecular target: ELMO1 (mouse (endogenous in osteoclasts)) (UniProt Q8BPU7); test: affinity purification with mass spectrometry; cell surface proteins of mature mouse osteoclasts labelled with NHS-Biotin; ELMO1 immunoprecipitated (mouse anti-ELMO1, Protein A agarose) from Triton X-100 lysate; immunoprecipitate heated 5 min at 95 °C, biotinylated proteins enriched with NeutrAvidin agarose; SDS-PAGE, LC-MS/MS; Elmo1+/+ and Elmo1-/- osteoclasts

Molecule | binding [1] | binding [2]
ATP6V0D2 (from UniProt Q80SY3 1-350) | binds | 
LRP1 (from UniProt Q91ZX7 20-4545) (receptor) |  | binds
HVCN1 (protein, UniProt Q3U2S8 1-269) MTSHDPKAVTRRTKVAPTKRMSRFLKHFTVVGDDYHTWNVNYKKWENEEEEEEPAPTSAEGEGNAEGPDAEAGSASTPRQSLDFRSRLRKLFSSHRFQVIIICLVVLDALLVLAELLLDLKIIEPDEQDYAVTAFHYMSFAILVFFMLEIFFKIFVFRLEFFHHKFEILDAFVVVVSFVLDLVLLFKSHHFEALGLLILLRLWRVARIINGIIISVKTRSERQILRLKQINIQLATKIQHLEFSCSEKEQEIERLNKLLKQNGLLGDVN | binds | 
KCNAB2 (protein, UniProt P62482 1-367) MYPESTTGSPARLSLRQTGSPGMIYSTRYGSPKRQLQFYRNLGKSGLRVSCLGLGTWVTFGGQITDEMAEHLMTLAYDNGINLFDTAEVYAAGKAEVVLGNIIKKKGWRRSSLVITTKIFWGGKAETERGLSRKHIIEGLKASLERLQLEYVDVVFANRPDPNTPMEETVRAMTHVINQGMAMYWGTSRWSSMEIMEAYSVARQFNLIPPICEQAEYHMFQREKVEVQLPELFHKIGVGAMTWSPLACGIVSGKYDSGIPPYSRASLKGYQWLKDKILSEEGRRQQAKLKELQAIAERLGCTLPQLAIAWCLRNEGVSSVLLGASNAEQLMENIGAIQVLPKLSSSIVHEIDSILGNKPYSKKDYRS | binds | 
Osteoactivin (receptor, UniProt Q99P91 23-574, biotin (cell surface labelling with EZ-Link NHS-Biotin)) KRFRDVLGHEQYPDHMREHNQLRGWSSDENEWDEHLYPVWRRGDGRWKDSWEGGRVQAVLTSDSPALVGSNITFVVNLVFPRCQKEDANGNIVYEKNCRNDLGLTSDLHVYNWTAGADDGDWEDGTSRSQHLRFPDRRPFPRPHGWKKWSFVYVFHTLGQYFQKLGRCSARVSINTVNLTAGPQVMEVTVFRRYGRAYIPISKVKDVYVITDQIPVFVTMSQKNDRNLSDEIFLRDLPIVFDVLIHDPSHFLNDSAISYKWNFGDNTGLFVSNNHTLNHTYVLNGTFNLNLTVQTAVPGPCPPPSPSTPPPPSTPPSPPPSPLPTLSTPSPSLMPTGYKSMELSDISNENCRINRYGYFRATITIVEGILEVSIMQIADVPMPTPQPANSLMDFTVTCKGATPMEACTIISDPTCQIAQNRVCSPVAVDGLCLLSVRRAFNGSGTYCVNFTLGDDASLALTSTLISIPGKDPDSPLRAVNGVLISIGCLAVLVTMVTILLYKKHKAYKPIGNCPRNTVKGKGLSVLLSHAKAPFFRGDQEKDPLLQDKPRTL |  | binds
SIRPα (receptor, UniProt P97797 32-513, biotin (cell surface labelling with EZ-Link NHS-Biotin)) KELKVTQPEKSVSVAAGDSTVLNCTLTSLLPVGPIRWYRGVGPSRLLIYSFAGEYVPRIRNVSDTTKRNNMDFSIRISNVTPADAGIYYCVKFQKGSSEPDTEIQSGGGTEVYVLAKPSPPEVSGPADRGIPDQKVNFTCKSHGFSPRNITLKWFKDGQELHPLETTVNPSGKNVSYNISSTVRVVLNSMDVNSKVICEVAHITLDRSPLRGIANLSNFIRVSPTVKVTQQSPTSMNQVNLTCRAERFYPEDLQLIWLENGNVSRNDTPKNLTKNTDGTYNYTSLFLVNSSAHREDVVFTCQVKHDQQPAITRNHTVLGFAHSSDQGSMQTFPDNNATHNWNVFIGVGVACALLVVLLMAALYLLRIKQKKAKGSTSSTRLHEPEKNAREITQVQSLIQDTNDINDITYADLNLPKEKKPAPRAPEPNNHTEYASIETGKVPRPEDTLTYADLDMVHLSRAQPAPKPEPSFSEYASVQVQRK |  | binds

No constants are given. Whether binding was seen depends on the method and setting. In cells and extracts the contact can be indirect. These calls come from enrichment with a bait or labelling near it, and not all partners need be listed.
